Results: patent EP2388012A1 (Roehampton University, priority 2010, dated 2011)
Not every detail of the peptide structures is certain; ends, links or a residue may be inferred. Some entries repeat one wording, which the source may state once for all of them. Where a SMILES comes first, the peptide text is derived from it. Where no end group is shown, it is not given here.

How the values were obtained:
[1] = test system: human neuroblastoma SH-SY5Y cell line; assay type: cell-based
[2] = test system: mouse LHRH secreting cell line (GT1); assay type: cell-based

Compound: NC(=O)C[C@H](NC(=O)[C@@H](N)Cc1ccc(O)cc1)C(=O)N[C@@H](Cc1c[nH]c2ccccc12)C(N)=O [Kissorphin-6 (1-3 amide)] (H-Tyr-Asn-Trp-NH2)
- effect on toxicity of Aß 1-42 [1]: no effect
- effect on toxicity of Aß 25-35 [1]: no effect
- effect on toxicity of IAPP 1-37 [1]: no effect
- effect on toxicity of IAPP 20-29 [1]: no effect
- effect on toxicity of PrP 106-126 [1]: no effect
- effect on toxicity of PrP 118-135 [1]: no effect
- effect on toxicity of the Amyloid-Bri peptide [1]: unaffected
- effect on toxicity of the Amyloid-Dan peptide [1]: unaffected
- effect on Kisspeptin-10 stimulated release of immunoreactive LHRH [2]: no significant effect
- effect on Kisspeptin-13 stimulated release of immunoreactive LHRH [2]: no significant effect

Compound: CC(C)C[C@H](NC(=O)CNC(=O)[C@H](Cc1ccccc1)NC(=O)[C@H](CO)NC(=O)[C@H](CC(N)=O)NC(=O)[C@H](Cc1c[nH]c2ccccc12)NC(=O)[C@H](CC(N)=O)NC(=O)[C@@H](N)Cc1ccc(O)cc1)C(=O)N[C@@H](CCCNC(=N)N)C(=O)N[C@@H](Cc1ccccc1)C(N)=O [Kisspeptin-10]
- effect on toxicity of Aß 1-42 [1]: significantly inhibited
- effect on toxicity of Aß 25-35 [1]: significantly inhibited
- effect on toxicity of IAPP 1-37 [1]: significantly inhibited
- effect on toxicity of IAPP 20-29 [1]: significantly inhibited
- effect on toxicity of PrP 106-126 [1]: significantly inhibited
- effect on toxicity of PrP 118-135 [1]: significantly inhibited
- effect on toxicity of the Amyloid-Bri peptide [1]: unaffected
- effect on toxicity of the Amyloid-Dan peptide [1]: unaffected
- increase in LHRH release [2]: 4 fold

Compound: CC(C)C[C@H](NC(=O)CNC(=O)[C@H](Cc1ccccc1)NC(=O)[C@H](CO)NC(=O)[C@H](CC(N)=O)NC(=O)[C@H](Cc1c[nH]c2ccccc12)NC(=O)[C@H](CC(N)=O)NC(=O)[C@H](Cc1ccc(O)cc1)NC(=O)[C@H](CC(N)=O)NC(=O)[C@@H]1CCCN1C(=O)[C@@H](N)CC(C)C)C(=O)N[C@@H](CCCNC(=N)N)C(=O)N[C@@H](Cc1ccccc1)C(N)=O [Kisspeptin-13]
- effect on toxicity of Aß 1-42 [1]: significantly inhibited
- effect on toxicity of Aß 25-35 [1]: significantly inhibited
- effect on toxicity of IAPP 1-37 [1]: significantly inhibited
- effect on toxicity of IAPP 20-29 [1]: significantly inhibited
- effect on toxicity of PrP 106-126 [1]: significantly inhibited
- effect on toxicity of PrP 118-135 [1]: significantly inhibited
- effect on toxicity of the Amyloid-Bri peptide [1]: unaffected
- effect on toxicity of the Amyloid-Dan peptide [1]: unaffected
- increase in LHRH release [2]: 4 fold

Compound: YNWNSF-NH2 [Kissorphin-6, Tyr-Asn-Trp-Asn-Ser-Phe]
- effect on toxicity of Aß 1-42 [1]: significantly inhibited
- effect on toxicity of Aß 25-35 [1]: significantly inhibited
- effect on toxicity of IAPP 1-37 [1]: significantly inhibited
- effect on toxicity of IAPP 20-29 [1]: significantly inhibited
- effect on toxicity of PrP 106-126 [1]: significantly inhibited
- effect on toxicity of PrP 118-135 [1]: significantly inhibited
- effect on toxicity of the Amyloid-Bri peptide [1]: unaffected
- effect on toxicity of the Amyloid-Dan peptide [1]: unaffected
- effect on Kisspeptin-10 stimulated release of immunoreactive LHRH [2]: no significant effect
- effect on Kisspeptin-13 stimulated release of immunoreactive LHRH [2]: no significant effect
